For experiment [1], the target named is T1, GST-NS1 fusion protein (respiratory syncytial virus nonstructural protein 1) (respiratory syncytial virus) (UniProt P0DOE9).
T1 sequence: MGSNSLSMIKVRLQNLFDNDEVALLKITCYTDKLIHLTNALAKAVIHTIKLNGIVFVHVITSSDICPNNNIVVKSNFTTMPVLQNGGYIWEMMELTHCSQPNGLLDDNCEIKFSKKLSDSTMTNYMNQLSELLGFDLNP
Briefly: pull-down; GST or His fusion protein (30 ug) coupled to GST or His tag purification resin, 4 C 2 h; target fusion protein added overnight at 4 C; western blot; both purified. (In general: In western blotting, separated proteins are transferred to a membrane and probed.)

Amino acid sequences for entries named in this document (tags omitted). A change or cut given only in a name is not applied to a line headed by its entry.
UniProt P07305: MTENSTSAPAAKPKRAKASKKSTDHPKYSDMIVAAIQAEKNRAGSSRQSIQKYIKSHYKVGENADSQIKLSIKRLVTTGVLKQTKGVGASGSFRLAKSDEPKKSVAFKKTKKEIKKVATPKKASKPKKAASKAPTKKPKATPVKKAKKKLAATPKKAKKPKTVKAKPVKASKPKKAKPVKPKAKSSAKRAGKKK
UniProt P09429: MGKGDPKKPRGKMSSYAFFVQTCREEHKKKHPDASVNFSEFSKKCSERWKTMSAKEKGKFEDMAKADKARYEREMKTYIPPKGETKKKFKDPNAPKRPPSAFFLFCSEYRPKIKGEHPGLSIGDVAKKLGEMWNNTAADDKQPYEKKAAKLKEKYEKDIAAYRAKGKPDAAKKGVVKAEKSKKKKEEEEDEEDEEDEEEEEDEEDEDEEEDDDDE

Experiment [2] addresses His-H1.0 fusion protein (histone H1.0) (UniProt P07305). The experiment is described as above.
The target in experiment [3] is T2, nonstructural protein 1 (NS1) made in RSV-infected A549 cells (human RSV, A2 strain) (UniProt P0DOE9).
T2 sequence: T1 sequence
Briefly: co-IP; A549 cell lysates; HMGB1, NS1 or H1.0 antibody on SureBeads Protein G, 2 h room temperature; cells RSV-infected 24 h, or NS1/control lentivirus 72 h, or RSV 6 h then siNS1/siCON 24 h.

Results are given in words; binding and its absence hold for the method and conditions named. For some of these results: In cells and extracts the contact can be indirect. Some entries that bind do so weakly or less than the wild type. For some of these results: Sequences can lack the tags named with a protein.

Regarding “HA-HMGB1 fusion protein (high mobility group box-1) (from UniProt P09429 1-215)”, the binding result is on record as “no binding” in experiment [1] and “binds” in experiment [2]. On to “His-H1.0 fusion protein (histone H1.0) (from UniProt P07305 2-194)”, for which, in experiment [1], the binding entry is given as “binds”.

As for “histone H1.0, endogenous in A549 cells (from UniProt P07305 1-194)”, the binding result in experiment [3] is recorded as “binds”.

Source of the values: publication PMC12596378.
